{"source": "PubChem BioAssay AID1259308 – NCATS | 2017", "screen": "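Candidate targets for better recombinant protein yield in mammalian cells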 (primary screen)", "cell system": "human HEK293 embryonic kidney cells stably expressing firefly luciferase (HEK-CMV-Luc2-Hygro)", "reagent": "single siRNA against human genes, 0.8 pmol siRNA per well", "duration": "72 h", "read-out": "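Luciferase light (ONE-Glo) measured on one replicate plate set and viability (CellTiter-Glo) on the other, scaled to a negative control siRNA, with robust z-scores and luciferase per cell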", "scale": "total luciferase, z-score and total luciferase, % of control: higher = more reporter protein produced", "hit rule": "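Active when the median/MAD z-score for overall luciferase is greater than 3; a gene was taken forward for validation with new siRNAs if at least two of its three siRNAs passed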", "meaning of the calls": "active = raised luciferase; inactive = no rise", "note": "The deposit covers about 59,000 reagents; below is an unselected part. About 1,510 of them (2.6%) count as active. 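Calls use total luciferase alone and ignore viability, so some active siRNAs may act by altering cell number.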 Reagents against one gene are numbered here. Not all columns of the deposit are shown."}
{"gene":"DDX43 (GeneID 55510)","reagent no.":1,"total luciferase, z-score":-1.36,"total luciferase, % of control":54.8,"call":"inactive"}
{"gene":"DDX43 (GeneID 55510)","reagent no.":2,"total luciferase, z-score":-0.832,"total luciferase, % of control":65.3,"call":"inactive"}
{"gene":"DDX43 (GeneID 55510)","reagent no.":3,"total luciferase, z-score":-0.923,"total luciferase, % of control":63.5,"call":"inactive"}
{"gene":"DYNLT2B (GeneID 255758)","reagent no.":1,"total luciferase, z-score":1.82,"total luciferase, % of control":118,"call":"inactive"}
{"gene":"DYNLT2B (GeneID 255758)","reagent no.":2,"total luciferase, z-score":0.35,"total luciferase, % of control":88.9,"call":"inactive"}
{"gene":"DYNLT2B (GeneID 255758)","reagent no.":3,"total luciferase, z-score":2.46,"total luciferase, % of control":131,"call":"inactive"}
{"gene":"ZNF691 (GeneID 51058)","reagent no.":1,"total luciferase, z-score":0.472,"total luciferase, % of control":91.3,"call":"inactive"}
{"gene":"ZNF691 (GeneID 51058)","reagent no.":2,"total luciferase, z-score":0.286,"total luciferase, % of control":87.6,"call":"inactive"}
{"gene":"ZNF691 (GeneID 51058)","reagent no.":3,"total luciferase, z-score":0.0178,"total luciferase, % of control":82.2,"call":"inactive"}
{"gene":"PMS2 (GeneID 5395)","reagent no.":1,"total luciferase, z-score":1.2,"total luciferase, % of control":106,"call":"inactive"}
{"gene":"PMS2 (GeneID 5395)","reagent no.":2,"total luciferase, z-score":-2.68,"total luciferase, % of control":28.6,"call":"inactive"}
{"gene":"PMS2 (GeneID 5395)","reagent no.":3,"total luciferase, z-score":-0.253,"total luciferase, % of control":76.9,"call":"inactive"}
{"gene":"PRLR (GeneID 5618)","reagent no.":1,"total luciferase, z-score":-0.671,"total luciferase, % of control":68.5,"call":"inactive"}
{"gene":"PRLR (GeneID 5618)","reagent no.":2,"total luciferase, z-score":-0.177,"total luciferase, % of control":78.4,"call":"inactive"}
{"gene":"PRLR (GeneID 5618)","reagent no.":3,"total luciferase, z-score":-1.34,"total luciferase, % of control":55.2,"call":"inactive"}

Laid out differently: entries from further up.
| gene | reagent no. | total luciferase, z-score | total luciferase, % of control | call |
| --- | --- | --- | --- | --- |
| DDX43 (GeneID 55510) | 3 | -0.923 | 63.5 | inactive |
| DYNLT2B (GeneID 255758) | 1 | 1.82 | 118 | inactive |
| DYNLT2B (GeneID 255758) | 2 | 0.35 | 88.9 | inactive |

Continued:
{"gene":"PTGER1 (GeneID 5731)","reagent no.":1,"total luciferase, z-score":0.0544,"total luciferase, % of control":83,"call":"inactive"}
{"gene":"PTGER1 (GeneID 5731)","reagent no.":2,"total luciferase, z-score":0.0194,"total luciferase, % of control":82.3,"call":"inactive"}
{"gene":"PTGER1 (GeneID 5731)","reagent no.":3,"total luciferase, z-score":0.39,"total luciferase, % of control":89.6,"call":"inactive"}
{"gene":"ERAS (GeneID 3266)","reagent no.":1,"total luciferase, z-score":-1,"total luciferase, % of control":62,"call":"inactive"}
{"gene":"ERAS (GeneID 3266)","reagent no.":2,"total luciferase, z-score":-0.755,"total luciferase, % of control":66.9,"call":"inactive"}
{"gene":"ERAS (GeneID 3266)","reagent no.":3,"total luciferase, z-score":2.16,"total luciferase, % of control":125,"call":"inactive"}
{"gene":"LOC729316 (GeneID 729316)","reagent no.":1,"total luciferase, z-score":2.89,"total luciferase, % of control":139,"call":"inactive"}
{"gene":"LOC729316 (GeneID 729316)","reagent no.":2,"total luciferase, z-score":1.84,"total luciferase, % of control":119,"call":"inactive"}
{"gene":"LOC729316 (GeneID 729316)","reagent no.":3,"total luciferase, z-score":1.78,"total luciferase, % of control":117,"call":"inactive"}
{"gene":"RPL18P4 (GeneID 392979)","reagent no.":1,"total luciferase, z-score":-1.98,"total luciferase, % of control":42.6,"call":"inactive"}
{"gene":"RPL18P4 (GeneID 392979)","reagent no.":2,"total luciferase, z-score":0.485,"total luciferase, % of control":91.5,"call":"inactive"}
{"gene":"RPL18P4 (GeneID 392979)","reagent no.":3,"total luciferase, z-score":-1.04,"total luciferase, % of control":61.2,"call":"inactive"}
{"gene":"RPL18P4 (GeneID 392979)","reagent no.":4,"total luciferase, z-score":-0.607,"total luciferase, % of control":69.8,"call":"inactive"}
{"gene":"RPL18P4 (GeneID 392979)","reagent no.":5,"total luciferase, z-score":0.13,"total luciferase, % of control":84.5,"call":"inactive"}
{"gene":"RPL18P4 (GeneID 392979)","reagent no.":6,"total luciferase, z-score":-0.925,"total luciferase, % of control":63.5,"call":"inactive"}
{"gene":"SAXO5 (GeneID 374877)","reagent no.":1,"total luciferase, z-score":0.767,"total luciferase, % of control":97.1,"call":"inactive"}
{"gene":"SAXO5 (GeneID 374877)","reagent no.":2,"total luciferase, z-score":-1.14,"total luciferase, % of control":59.1,"call":"inactive"}
{"gene":"SAXO5 (GeneID 374877)","reagent no.":3,"total luciferase, z-score":0.137,"total luciferase, % of control":84.6,"call":"inactive"}
